Primary screen of a compound library

The chains behind the UniProt entries cited, without tags or fusion partners.
UniProt E9BF75, entry or part of it: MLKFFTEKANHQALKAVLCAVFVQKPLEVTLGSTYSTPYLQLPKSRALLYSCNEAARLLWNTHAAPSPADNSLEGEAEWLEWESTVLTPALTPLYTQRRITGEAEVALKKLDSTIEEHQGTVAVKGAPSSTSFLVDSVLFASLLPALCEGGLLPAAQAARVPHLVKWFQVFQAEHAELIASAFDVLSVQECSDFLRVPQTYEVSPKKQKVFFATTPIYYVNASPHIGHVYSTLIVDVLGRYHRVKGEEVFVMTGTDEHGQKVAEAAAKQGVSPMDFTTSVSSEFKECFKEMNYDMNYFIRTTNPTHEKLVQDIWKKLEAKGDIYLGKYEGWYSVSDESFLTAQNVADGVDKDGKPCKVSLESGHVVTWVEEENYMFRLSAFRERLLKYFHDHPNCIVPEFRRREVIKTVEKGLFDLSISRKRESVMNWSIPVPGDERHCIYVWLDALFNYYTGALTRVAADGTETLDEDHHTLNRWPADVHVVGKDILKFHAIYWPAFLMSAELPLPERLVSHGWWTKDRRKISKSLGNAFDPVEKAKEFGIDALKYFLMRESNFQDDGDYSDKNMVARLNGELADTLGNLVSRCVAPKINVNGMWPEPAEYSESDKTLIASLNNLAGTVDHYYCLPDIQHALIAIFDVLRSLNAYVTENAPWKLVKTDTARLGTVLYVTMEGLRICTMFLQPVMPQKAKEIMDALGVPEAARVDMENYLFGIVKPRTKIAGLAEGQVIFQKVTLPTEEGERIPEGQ

Source: ChEMBL document CHEMBL3988442, “University of Dundee, Small-Polar-MMV Screening Library” (2021).

A: 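Methionyl-tRNA synthetase (putative), Leishmania donovani (UniProt E9BF75). Primary screen of methionyl-tRNA synthetase; the read-out is not stated. The test concentration is not given. The values are filed as inhibition. Of about 68,000 compounds tested this way, about 24 (0.035%) reached 50% or more in at least one test.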
B: 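Assay on Mycobacterium tuberculosis, filed only as a heat shock assay from Cornell; the read-out is not stated. The concentration is filed as 10 mM, unlikely as a test dose, so the dose is not known. Higher reads as stronger inhibition (inferred: compounds with an IC50 in retests scored well above the rest). Size under these conditions: about 69,000 compounds, about 930 of them at 50% or above in at least one test.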

Results are percentages, as filed. The record does not define 0% and 100%; most values in the screen are far below 50% and negative numbers occur (in some assays of this library far below -100). Compounds were drawn at random from those tested, without regard to their results. A dash means the value is not listed here; it may have been measured.

structure,A,B
CO[C@H]1CCN(c2ncccn2)[C@H]1Cc1ccccc1,3.937,-21.98
Cc1nnc(NC(=O)NC(C)C(=O)NC2CCCC2)s1 (stereo not shown),14.58,-6.312
CC1CCN(CCCNS(=O)(=O)c2cc(F)cc(F)c2)CC1.Cl,-,-30.51
CC(C(=O)NCC1CCN(c2ccncc2)CC1)S(C)(=O)=O (stereo not shown),19.26,-2.599
Cc1nn2c(NC(=O)CSc3nccn3C)csc2nc1=O,0.7752,-5.267
CCC1c2ccsc2CCN1C(=O)NCc1cc(C)on1 (stereo not shown),9.227,11.2
COCCC(=O)N1C[C@@H](O)[C@H](N2CCN(c3ccccc3)CC2)C1,17.81,-12.92
Cc1ccc(O)c(C(=O)N2CCC(CNC(=O)OC(C)(C)C)C2)c1 (stereo not shown),6.265,21.74
COc1ccccc1N1CC(NC(=O)c2cc(C(C)C)nn2C)CC1=O (stereo not shown),12.27,-47.51
COc1coc(CN2CCCC(CCc3ccc(F)cc3)C2)cc1=O (stereo not shown),9.192,-2.405
CN(C)c1ncc(NS(=O)(=O)c2ccc(OC(F)(F)F)cc2)cn1,11.11,-7.812
COCCCNC(=O)COc1ccccc1C(F)(F)F,6.15,-4.475
[H][C@@]12CCN(C(=O)c3c(C)noc3C)C[C@@]1([H])O[C@@H](c1ccnc(C)n1)C2,-,-7.697
CN1CCN(C[C@H]2CC[C@@H](Cc3ccc(CN4CCCC4)cc3)O2)CC1,13.9,30.22
COCc1ccccc1C(=O)N(C)Cc1ncc(C)c(OC)c1C,2.405,-5.078
[H][C@@]12CNC(=O)N1CCN(Cc1nccs1)C2,-,-3.552
NC(=O)CCC1CCCN(c2ccc3c(Cl)ccnc3c2F)C1 (stereo not shown),13.03,12.86
COCC1CN(Cc2ccccn2)Cc2cn(C)nc21.O=C(O)C(F)(F)F.O=C(O)C(F)(F)F.O=C(O)C(F)(F)F (stereo not shown),-,-1.101
CCN1C[C@H]2[C@@H](C1)N(c1ncc(F)cn1)CC[C@H]2OC,0.346,-
Cc1ccnc(NC(=O)c2ccc(F)c(S(=O)(=O)NC3CC3)c2)c1,13.69,-40.6
O=C(O)C(F)(F)F.O=C(O)C(F)(F)F.[H][C@@]12COC[C@]1([H])[C@@H](OCc1cccnc1)CN2Cc1ccco1,-,27.01
FC(F)(F)Cc1noc(CN2CCCC2c2noc(C3CC3)n2)n1 (stereo not shown),15.03,9.687
N#Cc1ccc(OC2CCN(C(=O)c3ccccc3Cl)CC2)nc1,14.34,0.2064
O=C(NC1CCCN(CCc2ccccc2)C1)c1ccccn1 (stereo not shown),15.21,16.04
O=C(c1ccc(Cn2cnnn2)cc1)N1CC[C@H](CO)[C@H](O)C1,11.67,-5.74
CC(C)C(=O)N1CCCC([C@@H]2C[C@H](C(F)F)n3ncnc3N2)C1 (stereo partly shown),9.969,-1.911
CC(C)C(=O)NC1COC2(CCN(Cc3cccnc3)CC2)C1 (stereo not shown),15.56,-
CC(C)Nc1ncnc2c1CCN(C(=O)CCc1ccccc1)CC2,-0.6667,-15.79
CCOC(=O)Cn1ccc(O)c(Cc2ccc(Cl)cc2Cl)c1=O,19.41,17.16
CC(C)N1CCCn2nc(C(=O)NCCc3c[nH]cn3)cc2C1,5.988,-34.13
CS(=O)(=O)Nc1cccc(CNC(=O)CCc2ccsc2)c1,12.85,12.75
CCNC(=O)[C@@H]1C[C@H](n2cc(CC3CCCCC3)nn2)CN1,-0.5587,0.5467
CN(C)CC(=O)N1CCC2(CCc3ccc(-c4ccncc4)cc32)CC1.O=C(O)C(F)(F)F.O=C(O)C(F)(F)F,-,-52.11
O=C(O)C(F)(F)F.O=C(O)C(F)(F)F.[H][C@@]12CN(Cc3ccco3)C[C@H](C(=O)Nc3cccnc3)[C@]1([H])CCO2,-,0.1667
Cc1cnn(CC2CCCCN2Cc2noc(C3CC3)n2)c1 (stereo not shown),21.43,29.55
Fc1ccc(CN2CCC(c3n[nH]c4nccnc34)CC2)cc1F,7.877,-6.852
O=C1NCCN1CCNc1cc(-c2ccccc2)nc2ccnn12,9.524,-34.61
CC(C)c1nccn1C1CCCN(C(=O)c2ccnc(N(C)C)c2)C1 (stereo not shown),14.58,-8.66
Cc1nnc(SC2CCc3ccccc3NC2=O)o1 (stereo not shown),4.533,-9.704
Cc1csc(N2CCC(NCC3(O)CCc4ccccc43)CC2)n1 (stereo not shown),9.487,-0.7634
CNc1ncc(-c2csc(NC(=O)C[C@H]3COCCN3)n2)cn1,7.524,-
Cc1ccc(OCc2occc2C(=O)N2CCCCC(N)C2)cc1 (stereo not shown),14.29,10.98
Cc1cc(C)c(CNC(=O)C(C)Oc2ccccc2C#N)c(=O)[nH]1 (stereo not shown),16.95,7.131
CCc1ccc(C(=O)N2CCCC2c2c(C)nn(C)c2OC)o1 (stereo not shown),12.37,-6.807
Cl.[H][C@@]12CCN(C3CCCC3)C[C@]1([H])[C@@H](c1ccsc1)CN2C(=O)C(C)(C)C,-,-4.306
O=C(CCc1cc(Cl)no1)N1CCC(c2cc3ncccc3cn2)CC1,14.15,-9
CCC(CN1CCCC1)n1cncc1-c1cnn(-c2ccccc2)c1 (stereo not shown),20.35,-
CN1CCC(Cc2noc(CC3CC3)n2)CC1,7.317,3.549
O=C1CC2(CCN(C(=O)c3cccc(Cl)c3)CC2)CN1,11.06,4.484
O=C(CNC(=O)c1ccccc1F)NCc1ccccn1,12.47,-20.67
O=C(NC[C@]1(O)CN(Cc2ccccc2F)C[C@H]1O)c1cscn1,14.32,-12.23
Cc1ccc(NC(=O)N(C)CC(O)COCCOC(C)C)c(Br)c1 (stereo not shown),9.041,-22.66
O=C(CNC(=O)N1CCc2c([nH]c3ccc(Cl)cc23)C1)NC1CCCC1,12.42,-3.107
O=C(NCC(O)c1ccccc1C(F)(F)F)c1cccnc1 (stereo not shown),11.15,34.22
O=S(=O)(c1cccnc1)N1C[C@@H]2CC[C@H](C1)N(Cc1ccccn1)C2,7.467,-
CSCc1nc(CNC(=O)C2CCCN(CC(N)=O)C2)cs1 (stereo not shown),1.985,-9.658
Cl.Cl.OC(CN1CCN(Cc2ccc(F)cc2)CC1)C1CC1 (stereo not shown),-,4.44
CCOCc1ncn2c1CN(S(=O)(=O)c1cccs1)CC2,20,-33.71
Cc1ccc(C)c(C(NC2CCCC2)c2cccnc2)c1 (stereo not shown),12.32,-34.15
Cc1noc([C@@]23CCO[C@@H]2CCN(C(=O)c2ccsc2)C3)n1,15.31,-
NC(=O)CN1CCCN(C(=O)CCOc2ccccc2Cl)CC1,14.93,-14.69
CNC(=O)NC(=O)CN1CCCC(Cc2ccccc2OC)C1 (stereo not shown),12.71,4.784
CC(C)(C)c1ncc(C(=O)N2CCN(C(=O)c3ccc[nH]3)CC2)c(O)n1,-0.9804,-19.81
Cc1ccc(OCCCNC(=O)Cc2nc3ncccn3n2)cc1,15.19,-8.217
O=C(NCCNc1ccccn1)N1CCSCC1,5.229,13.49